Experimental data: PubChem BioAssay AID493246 (Drosophila RNAi Screening Center, 2011)
Test: 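Genes fly cells need to grow and stay alive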 (primary screen). Cells: Drosophila Kc and S2R+ cells. Reagents: long dsRNA against Drosophila genes. Read-out: 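Raw, unnormalised count of remaining cells in each well; per-plate z-scores of cell number underlie the calls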. Reading the numbers: Kc cell number and S2R+ cell number: higher = more cells remaining. Hit rule: 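Counted as a hit if cell number falls by a z-score of at least 3 within its plate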.
In all, the deposit lists about 21,000 reagents; this is an unselected part of those with a known target gene and a result. In the full data, 429 (2%) were called active. 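Values are raw and not normalised between plates; calls rest on per-plate z-scores that were not deposited.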 Entries without a mark were called inactive. The record does not give: the amount of reagent, the time to read-out.

Depletion of Antp (Antennapedia) [DRSC12490] gave: Kc cell number, rep 1 = 1.49e6; Kc cell number, rep 2 = 1.59e6; S2R+ cell number, rep 1 = 9.76e5; S2R+ cell number, rep 2 = 1.03e6.
CG5359 [DRSC15780] scored Kc cell number, rep 1 = 1.60e6; Kc cell number, rep 2 = 1.63e6; S2R+ cell number, rep 1 = 1.18e6; S2R+ cell number, rep 2 = 1.33e6.
With knock-down of Hip1 (Huntingtin interacting protein 1) [DRSC09812] the results were Kc cell number, rep 1 = 1.43e6; Kc cell number, rep 2 = 1.48e6; S2R+ cell number, rep 1 = 1.38e6; S2R+ cell number, rep 2 = 1.27e6.
After knock-down of Pka-R1 (Protein kinase, cAMP-dependent, regulatory subunit type 1) [DRSC11674] the results were Kc cell number, rep 1 = 1.48e6; Kc cell number, rep 2 = 1.53e6; S2R+ cell number, rep 1 = 1.23e6; S2R+ cell number, rep 2 = 1.31e6.
Pka-R1 (Protein kinase, cAMP-dependent, regulatory subunit type 1) [DRSC11875] showed Kc cell number, rep 1 = 1.64e6; Kc cell number, rep 2 = 1.67e6; S2R+ cell number, rep 1 = 1.31e6; S2R+ cell number, rep 2 = 1.41e6.
After knock-down of CG13215 [DRSC06337], the record shows Kc cell number, rep 1 = 1.78e6; Kc cell number, rep 2 = 1.79e6; S2R+ cell number, rep 1 = 1.45e6; S2R+ cell number, rep 2 = 1.60e6.
After knock-down of shps (sheepish) [DRSC14614], the screen gave Kc cell number, rep 1 = 1.51e6; Kc cell number, rep 2 = 1.47e6; S2R+ cell number, rep 1 = 9.80e5; S2R+ cell number, rep 2 = 1.10e6.
With knock-down of CG1074 [DRSC12143], the record shows Kc cell number, rep 1 = 1.66e6; Kc cell number, rep 2 = 1.63e6; S2R+ cell number, rep 1 = 1.48e6; S2R+ cell number, rep 2 = 1.54e6.

2 entries from above, reformatted:
Pka-R1 (Protein kinase, cAMP-dependent, regulatory subunit type 1) [DRSC11674]
- Kc cell number, rep 1: 1.48e6
- Kc cell number, rep 2: 1.53e6
- S2R+ cell number, rep 1: 1.23e6
- S2R+ cell number, rep 2: 1.31e6

Pka-R1 (Protein kinase, cAMP-dependent, regulatory subunit type 1) [DRSC11875]
- Kc cell number, rep 1: 1.64e6
- Kc cell number, rep 2: 1.67e6
- S2R+ cell number, rep 1: 1.31e6
- S2R+ cell number, rep 2: 1.41e6

The listing continues.
Knock-down of CG5292 [DRSC15763] resulted in: Kc cell number, rep 1 = 1.13e6; Kc cell number, rep 2 = 1.19e6; S2R+ cell number, rep 1 = 1.17e6; S2R+ cell number, rep 2 = 1.32e6.
With knock-down of Ire1 (Inositol-requiring enzyme-1) [DRSC15606], the record shows Kc cell number, rep 1 = 1.30e6; Kc cell number, rep 2 = 1.32e6; S2R+ cell number, rep 1 = 1.17e6; S2R+ cell number, rep 2 = 1.17e6.
With knock-down of CG7208 [DRSC16212] the results were Kc cell number, rep 1 = 1.29e6; Kc cell number, rep 2 = 1.35e6; S2R+ cell number, rep 1 = 1.01e6; S2R+ cell number, rep 2 = 1.15e6.
Knock-down of lambdaTry [DRSC06137] gave: Kc cell number, rep 1 = 1.56e6; Kc cell number, rep 2 = 1.53e6; S2R+ cell number, rep 1 = 1.18e6; S2R+ cell number, rep 2 = 1.27e6.
